# Some of these results come from one statement about several compounds together.
# Tests used:
# [1] = system: tomato early blight fungi (Alternaria solani; QoI resistant strain, cytochrome b phenylalanine 129 mutated to leucine); format: in vivo; settings: 200 ppm foliar spray, inoculation after 1 day; tomato cv PATIO
# [2] = system: tomato leaf blight fungus (Cladosporium fulvum; QoI resistant strain, cytochrome b phenylalanine 129 mutated to leucine); assay: titer plate growth test in potato dextrose broth, absorbance at 550 nm; settings: 1 μL of 150 ppm dimethylsulfoxide dilution plus 150 μL inoculated broth; 18° C. for 5 days
SMILES,lesion area compared to the lesion area in an untreated tomato [1] [%],growth compared to the growth in an untreated group [2] [%]
C#CCON=C(C)C(C)=NN=C(CC)OCc1c(C)cccc1-n1nnn(C)c1=O [C-5],≤ 30,≤ 50
CCON=C(C)C(C)=NN=C(CC)OCc1c(C)cccc1-n1nnn(C)c1=O [A-2],≤ 30,≤ 50
CCC(=NN=C(C)C(C)=NOCc1ccccc1C)OCc1c(C)cccc1-n1nnn(C)c1=O [C-7],≤ 30,≤ 50
CC=CCON=C(C)C(C)=NN=C(CC)OCc1c(C)cccc1-n1nnn(C)c1=O [C-3],≤ 30,≤ 50
CCC(=NN=C1CCOc2cc(F)ccc21)OCc1c(C)cccc1-n1nnn(C)c1=O [E-16],≤ 30,≤ 50
CCC(=NN=C(C)c1ccc2c(c1)CCCC2)OCc1c(C)cccc1-n1nnn(C)c1=O [D-13],≤ 30,≤ 50
CCC(=NN=C(C)C(C)=NOCc1ccccc1)OCc1c(C)cccc1-n1nnn(C)c1=O [C-1],≤ 30,≤ 50
CCC(=NN=C(C)c1ccc2c(ccn2C)c1)OCc1c(C)cccc1-n1nnn(C)c1=O [D-7],≤ 30,≤ 50
CCC(=NN=C(C)c1ccc2c(c1)CCC2)OCc1c(C)cccc1-n1nnn(C)c1=O [D-11],≤ 30,≤ 50
CCC(=NN=C1CCc2c(F)cccc21)OCc1c(C)cccc1-n1nnn(C)c1=O [E-2],≤ 30,≤ 50
CCC(=NN=C1CCOc2ccc(OC)cc21)OCc1c(C)cccc1-n1nnn(C)c1=O [E-18],≤ 30,≤ 50
CCC(=NN=C(C)c1c(C)nn(C)c1Cl)OCc1c(C)cccc1-n1nnn(C)c1=O [D-1],≤ 30,≤ 50
CCC(=NN=C1CCOc2ccc(C)cc21)OCc1c(C)cccc1-n1nnn(C)c1=O [E-26],≤ 30,≤ 50
CCC(=NN=C1CCc2ccccc21)OCc1c(C)cccc1-n1nnn(C)c1=O [E-1],≤ 30,≤ 50
CCC(=NN=C(C)c1nc2ccccc2s1)OCc1c(C)cccc1-n1nnn(C)c1=O [1-5],≤ 30,≤ 50
CCC(=NN=C(C)c1ccc2c(c1)CCO2)OCc1c(C)cccc1-n1nnn(C)c1=O [D-2],≤ 30,≤ 50
CCC(=NN=C(C)c1cc2ccccc2o1)OCc1c(C)cccc1-n1nnn(C)c1=O [1-2],≤ 30,≤ 50
CCC(=NN=C(C)c1cc(C)n(C)n1)OCc1c(C)cccc1-n1nnn(C)c1=O [D-18],≤ 30,≤ 50

# Source: patent US11225470B2, “Tetrazolinone compounds and its use as pest control agents” (SUMITOMO CHEMICAL COMPANY, LIMITED, priority 2016, dated 2022)
